Experimental data as given in PubChem BioAssay AID256 (DTP/NCI, 2004).
The list shows only some results of the screen, not a fair sample: it gathers tests that were run many times, whatever their T/C, doses with no T/C, and many T/C values between a quarter and a half above the control. Other doses and runs of a compound stand elsewhere. T/C gives the treated animals as a percentage of the vehicle group. Some entries give survivors of the animals treated and no T/C: the source holds a T/C of zero for them, seemingly a mark for toxic or unscored doses. Some doses without a T/C left all or most animals alive at the check, yet need not have been tolerated: survival well below the control is almost never listed, so the zero probably covers shortened survival too. Counts of survivors are from the toxicity check (mostly the fifth day) where no day follows; animals may have died later. Schedule codes are those of the source, read here as Q, the interval in days (D) or hours (H), X, the number of doses. Some entries were tested several times; their values stand side by side, smallest first. Where survival is the endpoint, this PubChem deposit counts one and a half times the control or more as active, and values a quarter to a half above the control carry no call in these data; other NCI protocols may use other cut-offs. Some T/C values are followed by the survivors on the day toxicity was checked, most often the fifth; where none is given, no animal had died by that day. Signs of the kind (2×) stand for listed records that agree.

System: CD2F1 mice, L1210 leukemia ip, survival T/C
Experiment: NCI In Vivo Anticancer Drug Screen. Data for tumor model L1210 Leukemia (intraperitoneal) in CD2F1 (CDF1) mice
Settings: higher T/C = longer survival
Procedure, shortened: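 Tumor-bearing mice (transplanted tumor) were split into treated and vehicle control groups, and the measured endpoint of each treated group was divided by that of its vehicle controls.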

[1] = T/C endpoint: mean survival time, dose: 25.0 mg/kg/injection, schedule: Q01DX009 (ip), vehicle: saline with Tween-80
[2] = T/C endpoint: mean survival time, dose: 100.0 mg/kg/injection, schedule: Q04DX003 (ip), vehicle: saline with Tween-80
[3] = T/C endpoint: mean survival time, dose: 200.0 mg/kg/injection, schedule: Q04DX003 (ip), vehicle: saline with Tween-80
[4] = T/C endpoint: mean survival time, dose: 400.0 mg/kg/injection, schedule: Q04DX003 (ip), vehicle: saline with Tween-80
[5] = T/C endpoint: mean survival time, dose: 300.0 mg/kg/injection, schedule: Q01DX001 (ip), vehicle: saline
[6] = T/C endpoint: mean survival time, dose: 50.0 mg/kg/injection, schedule: Q04DX002 (ip), vehicle: saline with Tween-80
[7] = T/C endpoint: mean survival time, dose: 100.0 mg/kg/injection, schedule: Q04DX002 (ip), vehicle: saline with Tween-80
[8] = T/C endpoint: mean survival time, dose: 200.0 mg/kg/injection, schedule: Q04DX002 (ip), vehicle: saline with Tween-80
[9] = T/C endpoint: mean survival time, dose: 50.0 mg/kg/injection, schedule: Q01DX009 (ip), vehicle: Klucel (hydroxypropylcellulose) (HPC)

SMILES: O=C1NC(=O)c2cc(C(F)(F)F)ccc21
- survivor count [1]: 1 of 6
- survivor count (T/C endpoint: mean survival time, dose: 50.0 mg/kg/injection, schedule: Q04DX003 (ip), vehicle: saline with Tween-80): 0 of 6
- survivor count [2]: 5 of 6
- survivor count [3]: 0 of 6
- survivor count [4]: 0 of 6

SMILES: CN(C)C(=O)OCC[N+](C)(C)CCCCCCCCCC[N+](C)(C)CCOC(=O)N(C)C
- survivor count (T/C endpoint: mean survival time, dose: 5.0 mg/kg/injection, schedule: Q04DX003 (ip), vehicle: saline): 4 of 6

SMILES: CCCCCC(O)C(C)C (centres undefined)
- survivor count [5]: 1 of 6

SMILES: COS(=O)(=O)O
- survivor count (T/C endpoint: mean survival time, dose: 400.0 mg/kg/injection, schedule: Q04DX003 (ip), vehicle: saline): 3 of 6

SMILES: OC[CH2][Hg][Cl]
- survivor count (T/C endpoint: mean survival time, dose: 6.25 mg/kg/injection, schedule: Q01DX009 (ip), vehicle: saline with Tween-80): 2 of 6
- survivor count (T/C endpoint: mean survival time, dose: 12.5 mg/kg/injection, schedule: Q01DX009 (ip), vehicle: saline with Tween-80): 0 of 6
- survivor count [1]: 0 of 6
- survivor count (T/C endpoint: mean survival time, dose: 25.0 mg/kg/injection, schedule: Q04DX002 (ip), vehicle: saline with Tween-80): 1 of 3
- survivor count [6]: 0 of 3
- survivor count [7]: 0 of 3

SMILES: CCCCCCCCCCCCNCCC(=O)O
- survivor count [5]: 0 of 6

SMILES: O=C(COc1ccccc1)NC(=S)Nc1ccc(Cl)c(Cl)c1
- T/C [6]: 90, 93 [5 of 6 alive], 94, 104 % of control
- T/C [7]: 92, 94, 98, 105, 131 % of control
- T/C [8]: 96 (2×), 104, 105 % of control
- survivor count [8]: 3 of 3
- survivor count (T/C endpoint: mean survival time, dose: 400.0 mg/kg/injection, schedule: Q04DX002 (ip), vehicle: saline with Tween-80): 0 of 3

SMILES: O=c1scc(-c2ccc(C(F)(F)F)cc2)s1
- survivor count [9]: 6 of 6

SMILES: N#Cc1c(F)c(F)cc(F)c1F
- survivor count (T/C endpoint: mean survival time, dose: 400.0 mg/kg/injection, schedule: Q01DX009 (ip), vehicle: saline with Tween-80): 5 of 6

SMILES: O=C(O)CCCc1ccc(N(CCCl)CCCl)cc1
- T/C (T/C endpoint: mean survival time, dose: 8.0 mg/kg/injection, schedule: Q03HX024 (ip), vehicle: other): 128 % of control
- T/C (T/C endpoint: mean survival time, dose: 12.5 mg/kg/injection, schedule: Q01DX009 (ip), vehicle: saline): 127 % of control
- T/C (T/C endpoint: mean survival time, dose: 15.0 mg/kg/injection, schedule: Q01DX007 (ip), vehicle: saline with Tween-80): 142 % of control
- T/C (T/C endpoint: mean survival time, dose: 15.0 mg/kg/injection, schedule: Q01DX009 (ip), vehicle: saline with Tween-80): 136 % of control
- T/C (T/C endpoint: mean survival time, dose: 16.0 mg/kg/injection, schedule: Q01DX009 (ip), vehicle: Klucel (hydroxypropylcellulose) (HPC)): 125 % of control
- T/C (T/C endpoint: mean survival time, dose: 16.0 mg/kg/injection, schedule: Q01DX009 (ip), vehicle: other): 148 % of control
- T/C (T/C endpoint: mean survival time, dose: 16.0 mg/kg/injection, schedule: Q03HX008 (ip), vehicle: other): 132 % of control [9 of 10 alive]
- survivor count (T/C endpoint: mean survival time, dose: 16.0 mg/kg/injection, schedule: Q03HX024 (ip), vehicle: other): 7 of 10
- T/C (T/C endpoint: mean survival time, dose: 20.0 mg/kg/injection, schedule: Q01DX009 (ip), vehicle: saline with Tween-80): 128 % of control
- T/C (T/C endpoint: mean survival time, dose: 30.0 mg/kg/injection, schedule: Q01DX007 (ip), vehicle: saline): 135 % of control
- survivor count (T/C endpoint: mean survival time, dose: 30.0 mg/kg/injection, schedule: Q01DX009 (ip), vehicle: saline with Tween-80): 3 of 6
- T/C (T/C endpoint: mean survival time, dose: 30.0 mg/kg/injection, schedule: Q03DX003 (ip), vehicle: saline): 138 % of control
- survivor count (T/C endpoint: mean survival time, dose: 32.0 mg/kg/injection, schedule: Q01DX009 (ip), vehicle: other): 10 of 10
- survivor count (T/C endpoint: mean survival time, dose: 32.0 mg/kg/injection, schedule: Q01DX009 (ip), vehicle: saline with Tween-80): 1 of 6
- survivor count (T/C endpoint: mean survival time, dose: 32.0 mg/kg/injection, schedule: Q01DX009 (sc), vehicle: other): 10 of 10
- T/C (T/C endpoint: mean survival time, dose: 32.0 mg/kg/injection, schedule: Q04DX003 (ip), vehicle: saline with Tween-80): 134 % of control [5 of 6 alive]
- survivor count [9]: 0 of 6
- survivor count (T/C endpoint: mean survival time, dose: 60.0 mg/kg/injection, schedule: Q01DX007 (ip), vehicle: saline with Tween-80): 0 of 6
- survivor count (T/C endpoint: mean survival time, dose: 60.0 mg/kg/injection, schedule: Q01DX009 (ip), vehicle: saline with Tween-80): 0 of 6
- survivor count (T/C endpoint: mean survival time, dose: 64.0 mg/kg/injection, schedule: Q01DX001 (ip), vehicle: saline with Tween-80): 1 of 6 and 3 of 6
- survivor count (T/C endpoint: mean survival time, dose: 64.0 mg/kg/injection, schedule: Q01DX009 (ip), vehicle: other): 0 of 10
- survivor count (T/C endpoint: mean survival time, dose: 64.0 mg/kg/injection, schedule: Q01DX009 (oral), vehicle: other): 4 of 10
- survivor count (T/C endpoint: mean survival time, dose: 64.0 mg/kg/injection, schedule: Q01DX009 (sc), vehicle: other): 6 of 10
- survivor count (T/C endpoint: mean survival time, dose: 64.0 mg/kg/injection, schedule: Q04DX003 (ip), vehicle: other): 10 of 10
- survivor count (T/C endpoint: mean survival time, dose: 64.0 mg/kg/injection, schedule: Q04DX003 (ip), vehicle: saline with Tween-80): 5 of 6
- survivor count (T/C endpoint: mean survival time, dose: 100.0 mg/kg/injection, schedule: Q01DX009 (ip), vehicle: Klucel (hydroxypropylcellulose) (HPC)): 0 of 6
- survivor count (T/C endpoint: mean survival time, dose: 128.0 mg/kg/injection, schedule: Q01DX001 (ip), vehicle: other): 0 of 10
- survivor count (T/C endpoint: mean survival time, dose: 128.0 mg/kg/injection, schedule: Q01DX001 (ip), vehicle: saline with Tween-80): 0 of 6
- survivor count (T/C endpoint: mean survival time, dose: 128.0 mg/kg/injection, schedule: Q01DX001 (oral), vehicle: other): 3 of 10
- survivor count (T/C endpoint: mean survival time, dose: 128.0 mg/kg/injection, schedule: Q01DX001 (sc), vehicle: other): 3 of 10
- survivor count (T/C endpoint: mean survival time, dose: 128.0 mg/kg/injection, schedule: Q04DX003 (ip), vehicle: other): 1 of 10
- survivor count (T/C endpoint: mean survival time, dose: 128.0 mg/kg/injection, schedule: Q04DX003 (oral), vehicle: other): 5 of 10
- survivor count (T/C endpoint: mean survival time, dose: 128.0 mg/kg/injection, schedule: Q08DX002 (ip), vehicle: other): 0 of 10
- survivor count (T/C endpoint: mean survival time, dose: 200.0 mg/kg/injection, schedule: Q01DX009 (ip), vehicle: Klucel (hydroxypropylcellulose) (HPC)): 0 of 6
- survivor count (T/C endpoint: mean survival time, dose: 256.0 mg/kg/injection, schedule: Q01DX001 (ip), vehicle: saline with Tween-80): 0 of 6
- T/C (T/C endpoint: median survival time, dose: 12.5 mg/kg/injection, schedule: Q01DX009 (ip), vehicle: saline): 128 % of control
- survivor count (T/C endpoint: median survival time, dose: 25.0 mg/kg/injection, schedule: Q01DX009 (ip), vehicle: saline): 0 of 6 and 1 of 6

SMILES: BrCc1cccc2cccnc12
- survivor count [1]: 3 of 3
- survivor count (T/C endpoint: mean survival time, dose: 50.0 mg/kg/injection, schedule: Q01DX009 (ip), vehicle: saline with Tween-80): 3 of 3
- survivor count (T/C endpoint: mean survival time, dose: 200.0 mg/kg/injection, schedule: Q01DX009 (ip), vehicle: saline with Tween-80): 1 of 3
- survivor count (T/C endpoint: median survival time, dose: 200.0 mg/kg/injection, schedule: Q04DX003 (ip), vehicle: saline with Tween-80): 0 of 3
- survivor count (T/C endpoint: median survival time, dose: 400.0 mg/kg/injection, schedule: Q04DX003 (ip), vehicle: saline with Tween-80): 0 of 3

SMILES: CCCCCCCCCCCCNC(=O)C[n+]1cccc(C(=O)Nc2ccccc2)c1
- survivor count [1]: 0 of 6
- survivor count [2]: 0 of 6
- survivor count [3]: 0 of 6
- survivor count [4]: 0 of 6

SMILES: CS(=O)(=O)CS(=O)(=O)OCCF
- survivor count (T/C endpoint: median survival time, dose: 50.0 mg/kg/injection, schedule: Q01DX009 (ip), vehicle: saline): 0 of 6 and 5 of 6

SMILES: O=NN(CCF)C(=O)NC1CCCCC1
- T/C (T/C endpoint: median survival time, dose: 20.0 mg/kg/injection, schedule: Q04DX002 (ip), vehicle: saline): 136 % of control
- survivor count (T/C endpoint: median survival time, dose: 160.0 mg/kg/injection, schedule: Q04DX002 (ip), vehicle: saline): 3 of 6
- survivor count (T/C endpoint: median survival time, dose: 320.0 mg/kg/injection, schedule: Q04DX002 (ip), vehicle: saline): 2 of 6

SMILES: COc1ccc2nc3c(C)c4ccn(O)cc4c(C)c3c2c1
- T/C (T/C endpoint: mean survival time, dose: 200.0 mg/kg/injection, schedule: Q04DX003 (ip), vehicle: water): 128 % of control
- T/C (T/C endpoint: mean survival time, dose: 400.0 mg/kg/injection, schedule: Q04DX003 (ip), vehicle: water): 128 % of control [5 of 6 alive]
